The values that follow come from publication PMC6146289, “Combinatorial use of disulfide bridges and native sulfur-SAD phasing for rapid structure determination of coiled-coils” (Bioscience Reports, 2018).

No constants are given. Whether binding was seen depends on the method and setting.

Assay [1] addresses HsCEP135 82–144 (amino acids 82–144 of human CEP135, centrosomal protein of 135 kDa) (human) (UniProt Q66GS9). The experiment in a line: condition: only under reducing conditions (2 mM DTT); 20 μl at 23 mg/ml injected; SEC-MALS; reducing conditions: 20 mM Tris-HCl, pH 7.5, 150 mM NaCl, with 2 mM DTT; S-200 10/30 column; 20 μl at 23 mg/ml injected; 10°C; both purified. In general terms: Size exclusion chromatography separates by hydrodynamic size, large species first.

The target of assay [2] is Kif21a_M947C (regulatory coiled-coil domain of human kinesin-4 KIF21A with the mutation M947C) (human) (UniProt Q7Z4S6). The experiment in a line: SEC-MALS; 20 mM Tris-HCl, pH 7.5, 150 mM NaCl, with or without 2 mM DTT (reducing and oxidizing conditions); S-200 13/10 column; 100 μl at 2 mg/ml injected; 10°C; both purified.

B1: HsCEP135 82–144 (amino acids 82–144 of human CEP135, centrosomal protein of 135 kDa) (domain or fragment, UniProt Q66GS9 82-144, looked up)
chain: NNELYLELMKLREHSDQHVKELKTSLKKCARETADLKFLNNQYAHKLKLLEKESKAKNERIQQ
notes: coiled-coil fragment with one cysteine (Cys110) and one methionine per monomer; Under oxidizing conditions Cys110 forms a homotypic disulfide bridge between the two chains of the parallel coiled-coil dimer; Calculated molecular weight 7.71 kDa
For B1, the binding result in assay [1] is reported as “no binding”.

B2: Kif21a_M947C (regulatory coiled-coil domain of human kinesin-4 KIF21A with the mutation M947C) (domain or fragment, UniProt Q7Z4S6 938-1017)
chain: MTISNMEADCNRLLKQREELTKRREKLSKRREKIVKENGEGDKNVANINEEMESLTANIDYINDSISDCQANIMQMEEAK
With B2, in assay [2], the binding result was “no binding (tested: 100 μl at 2 mg/ml injected)”.
